# Experimental data taken from the supplement of paper PMC8728848.
# Some of the results follow.
# How the values were obtained:
# Assay in all cases: glycan array binding signal (z-score within array); higher = stronger binding
# Details in all cases: glycan notation: IUPAC condensed, linker removed
# [1] = target: Fuc(a1-2)[Gal(a1-3)]Gal(b1-4)GlcNAc(b1-2)Man(a1-3)[Fuc(a1-2)[Gal(a1-3)]Gal(b1-4)GlcNAc(b1-2)Man(a1-6)]Man(b1-4)GlcNAc(b1-4)[Fuc(a1-6)]GlcNAc
# Summary of the method: (§1)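 Negative Z-scores can be read as non-binding. The Z-score is calculated within each array and then averaged across arrays of one protein sequence at different concentrations or buffers and across linkers. Arrays, 3228 in all, were curated from the Consortium for Functional Glycomics database and kept only where the protein sequence was available.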
# [2] = target: Fuc(a1-2)[Gal(a1-3)]Gal(b1-4)GlcNAc(b1-3)GalNAc
# Summary of the method: as §1
# [3] = target: Fuc(a1-2)[Gal(a1-3)]Gal(b1-4)GlcNAc(b1-3)[Fuc(a1-2)[Gal(a1-3)]Gal(b1-4)GlcNAc(b1-6)]GalNAc
# Summary of the method: as §1
# [4] = target: Fuc(a1-2)[Gal(a1-3)]Gal(b1-4)GlcNAc(b1-6)GalNAc
# Summary of the method: as §1
# [5] = target: Fuc(a1-2)[Gal(a1-3)]Gal(b1-4)[Fuc(a1-3)]Glc
# Summary of the method: as §1
# [6] = target: Fuc(a1-2)[Gal(a1-3)]Gal(b1-4)[Fuc(a1-3)]GlcNAc
# Summary of the method: as §1
# [7] = target: Fuc(a1-2)[Gal(a1-3)]Gal(b1-4)[Fuc(a1-3)]GlcNAc(b1-3)GalNAc
# Summary of the method: as §1
# [8] = target: Fuc(a1-2)[Gal(a1-4)]Gal(b1-4)GlcNAc
# Summary of the method: as §1
# [9] = target: Fuc(a1-2)[GalNAc(a1-3)]Gal
# Summary of the method: as §1
# [10] = target: Fuc(a1-2)[GalNAc(a1-3)]Gal(b1-3)GalNAc(a1-3)[Fuc(a1-2)]Gal(b1-4)GlcNAc
# Summary of the method: as §1
# [11] = target: Fuc(a1-2)[GalNAc(a1-3)]Gal(b1-3)GalNAc(b1-3)Gal(a1-4)Gal(b1-4)Glc
# Summary of the method: as §1
# [12] = target: Fuc(a1-2)[GalNAc(a1-3)]Gal(b1-3)GlcNAc
# Summary of the method: as §1
# [13] = target: Fuc(a1-2)[GalNAc(a1-3)]Gal(b1-3)GlcNAc(b1-2)Man(a1-3)[Fuc(a1-2)[GalNAc(a1-3)]Gal(b1-3)GlcNAc(b1-2)Man(a1-6)]Man(b1-4)GlcNAc(b1-4)GlcNAc
# Summary of the method: as §1
# [14] = target: Fuc(a1-2)[GalNAc(a1-3)]Gal(b1-3)GlcNAc(b1-2)Man(a1-3)[Fuc(a1-2)[GalNAc(a1-3)]Gal(b1-3)GlcNAc(b1-2)Man(a1-6)]Man(b1-4)GlcNAc(b1-4)[Fuc(a1-6)]GlcNAc
# Summary of the method: as §1
# [15] = target: Fuc(a1-2)[GalNAc(a1-3)]Gal(b1-3)GlcNAc(b1-3)GalNAc
# Summary of the method: as §1
# [16] = target: Fuc(a1-2)[GalNAc(a1-3)]Gal(b1-3)GlcNAc(b1-6)GalNAc
# Summary of the method: as §1
# [17] = target: Fuc(a1-2)[GalNAc(a1-3)]Gal(b1-4)Glc
# Summary of the method: as §1
# [18] = target: Fuc(a1-2)[GalNAc(a1-3)]Gal(b1-4)GlcNAc
# Summary of the method: as §1
# [19] = target: Fuc(a1-2)[GalNAc(a1-3)]Gal(b1-4)GlcNAc(b1-2)Man
# Summary of the method: as §1
# [20] = target: Fuc(a1-2)[GalNAc(a1-3)]Gal(b1-4)GlcNAc(b1-2)Man(a1-3)[Fuc(a1-2)[GalNAc(a1-3)]Gal(b1-4)GlcNAc(b1-2)Man(a1-6)]Man(b1-4)GlcNAc(b1-4)GlcNAc
# Summary of the method: as §1
# [21] = target: Fuc(a1-2)[GalNAc(a1-3)]Gal(b1-4)GlcNAc(b1-2)Man(a1-3)[Fuc(a1-2)[GalNAc(a1-3)]Gal(b1-4)GlcNAc(b1-2)Man(a1-6)]Man(b1-4)GlcNAc(b1-4)[Fuc(a1-6)]GlcNAc
# Summary of the method: as §1
# [22] = target: Fuc(a1-2)[GalNAc(a1-3)]Gal(b1-4)GlcNAc(b1-3)Gal(b1-4)GlcNAc
# Summary of the method: as §1
# [23] = target: Fuc(a1-2)[GalNAc(a1-3)]Gal(b1-4)GlcNAc(b1-3)Gal(b1-4)GlcNAc(b1-3)Gal(b1-4)GlcNAc
# Summary of the method: as §1
# [24] = target: Fuc(a1-2)[GalNAc(a1-3)]Gal(b1-4)GlcNAc(b1-3)GalNAc
# Summary of the method: as §1
# [25] = target: Fuc(a1-2)[GalNAc(a1-3)]Gal(b1-4)GlcNAc(b1-3)[Fuc(a1-2)[GalNAc(a1-3)]Gal(b1-4)GlcNAc(b1-6)]GalNAc
# Summary of the method: as §1
# [26] = target: Fuc(a1-2)[GalNAc(a1-3)]Gal(b1-4)GlcNAc(b1-6)GalNAc
# Summary of the method: as §1
# [27] = target: Fuc(a1-2)[GalNAc(a1-3)]Gal(b1-4)[Fuc(a1-3)]GlcNAc
# Summary of the method: as §1
# [28] = target: Fuc(a1-2)[GalNAc(a1-3)]Gal(b1-4)[Fuc(a1-3)]GlcNAc(b1-3)GalNAc
# Summary of the method: as §1
# [29] = target: Fuc(a1-2)[GalNAc(a1-4)]Gal(b1-4)GlcNAc
# Summary of the method: as §1
# [30] = target: Fuc(a1-2)[GalNAc(b1-3)]Gal
# Summary of the method: as §1
# Fuc(a1-3)GlcNAc = target: Fuc(a1-3)GlcNAc
# Summary of the method: as §1
# [31] = target: Fuc(a1-3)[Gal(b1-4)]Glc6S
# Summary of the method: as §1
# [32] = target: Fuc(a1-3)[Gal(b1-4)]GlcNAc
# Summary of the method: as §1
# [33] = target: Fuc(a1-3)[Gal(b1-4)]GlcNAc(b1-2)Man
# Summary of the method: as §1
# [34] = target: Fuc(a1-3)[Gal(b1-4)]GlcNAc(b1-2)Man(a1-3)[Fuc(a1-3)[Gal(b1-4)]GlcNAc(b1-2)Man(a1-6)]Man(b1-4)GlcNAc(b1-4)GlcNAc
# Summary of the method: as §1
# [35] = target: Fuc(a1-3)[Gal(b1-4)]GlcNAc(b1-2)Man(a1-3)[Fuc(a1-3)[Gal(b1-4)]GlcNAc(b1-2)Man(a1-6)]Man(b1-4)GlcNAc(b1-4)[Fuc(a1-6)]GlcNAc
# Summary of the method: as §1
# [36] = target: Fuc(a1-3)[Gal(b1-4)]GlcNAc(b1-3)Gal(b1-3)[Fuc(a1-4)]GlcNAc
# Summary of the method: as §1
# [37] = target: Fuc(a1-3)[Gal(b1-4)]GlcNAc(b1-3)Gal(b1-4)[Fuc(a1-3)]GlcNAc
# Summary of the method: as §1
# [38] = target: Fuc(a1-3)[Gal(b1-4)]GlcNAc(b1-3)Gal(b1-4)[Fuc(a1-3)]GlcNAc(b1-3)Gal(b1-4)[Fuc(a1-3)]GlcNAc
# Summary of the method: as §1
# [39] = target: Fuc(a1-3)[Gal(b1-4)]GlcNAc(b1-3)GalNAc
# Summary of the method: as §1
# [40] = target: Fuc(a1-3)[Gal(b1-4)]GlcNAc(b1-6)GalNAc
# Summary of the method: as §1
# [41] = target: Fuc(a1-3)[Gal(b1-4)]GlcNAc(b1-6)[Gal(b1-3)GlcNAc(b1-3)]Gal(b1-4)Glc
# Summary of the method: as §1
# [42] = target: Fuc(a1-3)[Gal(b1-4)]GlcNAc6S
# Summary of the method: as §1
# [43] = target: Fuc(a1-3)[Gal3S(b1-4)]Glc
# Summary of the method: as §1
# [44] = target: Fuc(a1-3)[Gal3S(b1-4)]GlcNAc
# Summary of the method: as §1
# [45] = target: Fuc(a1-3)[Gal3S(b1-4)]GlcNAc6S
# Summary of the method: as §1
# [46] = target: Fuc(a1-3)[GalNAc(b1-4)]GlcNAc
# Summary of the method: as §1
# [47] = target: Fuc(a1-3)[GalNAc(b1-4)]GlcNAc6S
# Summary of the method: as §1
# Fuc(a1-4)GlcNAc = target: Fuc(a1-4)GlcNAc
# Summary of the method: as §1
# Fuc(b1-3)GlcNAc = target: Fuc(b1-3)GlcNAc
# Summary of the method: as §1
# Gal(a1-2)Gal = target: Gal(a1-2)Gal
# Summary of the method: as §1
# Gal(a1-3)Gal = target: Gal(a1-3)Gal
# Summary of the method: as §1
# Gal(a1-3)Gal(b1-3)GlcNAc = target: Gal(a1-3)Gal(b1-3)GlcNAc
# Summary of the method: as §1
# [48] = target: Gal(a1-3)Gal(b1-3)GlcNAc(b1-2)Man
# Summary of the method: as §1
# [49] = target: Gal(a1-3)Gal(b1-3)GlcNAc(b1-2)Man(a1-3)[Gal(a1-3)Gal(b1-3)GlcNAc(b1-2)Man(a1-6)]Man(b1-4)GlcNAc(b1-4)GlcNAc
# Summary of the method: as §1
# [50] = target: Gal(a1-3)Gal(b1-3)GlcNAc(b1-3)GalNAc
# Summary of the method: as §1
# [51] = target: Gal(a1-3)Gal(b1-3)GlcNAc(b1-6)GalNAc
# Summary of the method: as §1
# [52] = target: Gal(a1-3)Gal(b1-3)[Fuc(a1-4)]GlcNAc(b1-2)Man(a1-3)[Gal(a1-3)Gal(b1-3)[Fuc(a1-4)]GlcNAc(b1-2)Man(a1-6)]Man(b1-4)GlcNAc(b1-4)GlcNAc
# Summary of the method: as §1
# Gal(a1-3)Gal(b1-4)Glc = target: Gal(a1-3)Gal(b1-4)Glc
# Summary of the method: as §1
# Gal(a1-3)Gal(b1-4)GlcNAc = target: Gal(a1-3)Gal(b1-4)GlcNAc
# Summary of the method: as §1
binder,measurement,setting,value
Nc3LysM-2 (protein) AHVLQARQSVSCDFATAANTGDTCASFAAAWGITEAAFAKLNPGVSCPGNLIAGSEYCVIGTVSTGAPTTTKAATTSTTPPTTTTTTKATTLSTSTTSVSPTGPSPQMPSITSTCNKFYQVQSGDGCWSIEQAQGVSASDFMAWNKAVDAQCDNLWLGYYVCVGVKGGSSPPPTTTTKPASSSAPTPQMPNTVSNCKKFHKVVSGDGCWAIEQAAGISASDFAKWNPYVDAACDNLWLGYYVCIGV,glycan array binding signal (z-score),[1],-0.64
same,glycan array binding signal (z-score),[2],-1.24
same,glycan array binding signal (z-score),[3],-0.659
same,glycan array binding signal (z-score),[4],-0.505
same,glycan array binding signal (z-score),[5],-1.4
same,glycan array binding signal (z-score),[6],0.099
same,glycan array binding signal (z-score),[7],-0.725
same,glycan array binding signal (z-score),[8],0.067
same,glycan array binding signal (z-score),[9],-0.518
same,glycan array binding signal (z-score),[10],0.497
same,glycan array binding signal (z-score),[11],0.509
same,glycan array binding signal (z-score),[12],-0.081
same,glycan array binding signal (z-score),[13],0.427
same,glycan array binding signal (z-score),[14],0.699
same,glycan array binding signal (z-score),[15],0.467
same,glycan array binding signal (z-score),[16],-1.06
same,glycan array binding signal (z-score),[17],1.85
same,glycan array binding signal (z-score),[18],0.41
same,glycan array binding signal (z-score),[19],-1.26
same,glycan array binding signal (z-score),[20],0.12
same,glycan array binding signal (z-score),[21],1.46
same,glycan array binding signal (z-score),[22],-1.43
same,glycan array binding signal (z-score),[23],1.08
same,glycan array binding signal (z-score),[24],0.544
same,glycan array binding signal (z-score),[25],-0.869
same,glycan array binding signal (z-score),[26],-1.2
same,glycan array binding signal (z-score),[27],-0.802
same,glycan array binding signal (z-score),[28],0.942
same,glycan array binding signal (z-score),[29],-0.013
same,glycan array binding signal (z-score),[30],-0.782
same,glycan array binding signal (z-score),Fuc(a1-3)GlcNAc,-0.094
same,glycan array binding signal (z-score),[31],-0.823
same,glycan array binding signal (z-score),[32],-0.073
same,glycan array binding signal (z-score),[33],-1.36
same,glycan array binding signal (z-score),[34],0.528
same,glycan array binding signal (z-score),[35],-0.121
same,glycan array binding signal (z-score),[36],-1.41
same,glycan array binding signal (z-score),[37],-0.714
same,glycan array binding signal (z-score),[38],1.02
same,glycan array binding signal (z-score),[39],-0.088
same,glycan array binding signal (z-score),[40],-1.23
same,glycan array binding signal (z-score),[41],-0.829
same,glycan array binding signal (z-score),[42],-1.07
same,glycan array binding signal (z-score),[43],0.532
same,glycan array binding signal (z-score),[44],-0.279
same,glycan array binding signal (z-score),[45],0.033
same,glycan array binding signal (z-score),[46],-0.263
same,glycan array binding signal (z-score),[47],-1.46
same,glycan array binding signal (z-score),Fuc(a1-4)GlcNAc,-0.095
same,glycan array binding signal (z-score),Fuc(b1-3)GlcNAc,0.734
same,glycan array binding signal (z-score),Gal(a1-2)Gal,-1.15
same,glycan array binding signal (z-score),Gal(a1-3)Gal,0.678
same,glycan array binding signal (z-score),Gal(a1-3)Gal(b1-3)GlcNAc,-0.135
same,glycan array binding signal (z-score),[48],-1.17
same,glycan array binding signal (z-score),[49],-1.13
same,glycan array binding signal (z-score),[50],-0.589
same,glycan array binding signal (z-score),[51],-0.054
same,glycan array binding signal (z-score),[52],-0.092
same,glycan array binding signal (z-score),Gal(a1-3)Gal(b1-4)Glc,-1.12
same,glycan array binding signal (z-score),Gal(a1-3)Gal(b1-4)GlcNAc,0.363

# 5 records drawn at random from the list so far:
binder,measurement,setting,value
Nc3LysM-2 (protein) AHVLQARQSVSCDFATAANTGDTCASFAAAWGITEAAFAKLNPGVSCPGNLIAGSEYCVIGTVSTGAPTTTKAATTSTTPPTTTTTTKATTLSTSTTSVSPTGPSPQMPSITSTCNKFYQVQSGDGCWSIEQAQGVSASDFMAWNKAVDAQCDNLWLGYYVCVGVKGGSSPPPTTTTKPASSSAPTPQMPNTVSNCKKFHKVVSGDGCWAIEQAAGISASDFAKWNPYVDAACDNLWLGYYVCIGV,glycan array binding signal (z-score),[36],-1.41
same,glycan array binding signal (z-score),[13],0.427
same,glycan array binding signal (z-score),[4],-0.505
same,glycan array binding signal (z-score),[11],0.509
same,glycan array binding signal (z-score),[8],0.067
